The list does not hold the whole screen: it is rich in T/C values a quarter to a half above the control, in often repeated tests (any T/C) and in doses without a T/C. Other doses and runs of a compound stand elsewhere. T/C: endpoint of the treated group in % of that of the vehicle group. Some doses have a count of surviving animals in place of a T/C: the source holds a T/C of zero for them, seemingly a mark for toxic or unscored doses. Some survivor counts are full or nearly so, which does not show that the dose was tolerated: survival well below the control is almost never listed, so the zero probably covers shortened survival too. Survivors were counted at the toxicity check, usually on the fifth day, unless a day is given; later deaths do not show. Schedules are NCI's codes, taken here to give the interval after Q, in days (D) or hours (H), and the number of doses after X. Some entries were tested several times; the results are listed from low to high. Some schedules carry Z or #; the key to these is not given. Where survival is the endpoint, the PubChem record calls one and a half times the control and up active, and a quarter to a half above the control has no call in these data; cut-offs in other NCI protocols can differ.
Test system: L1210 leukemia ip in BDF1 mice, survival T/C
Test: NCI In Vivo Anticancer Drug Screen. Data for tumor model L1210 Leukemia (intraperitoneal) in B6D2F1 (BDF1) mice
Conditions: T/C endpoint: mean survival time, higher T/C = longer survival
[1] = dose: 100.0 mg/kg/injection, schedule: Q04DX002 (ip), vehicle: Klucel (hydroxypropylcellulose) (HPC)
[2] = dose: 400.0 mg/kg/injection, schedule: Q04DX002 (ip), vehicle: Klucel (hydroxypropylcellulose) (HPC)
[3] = dose: 400.0 mg/kg/injection, schedule: Q04DX003 (ip), vehicle: Klucel (hydroxypropylcellulose) (HPC)
[4] = dose: 400.0 mg/kg/injection, schedule: Q01DX001 (ip), vehicle: saline
[5] = dose: 100.0 mg/kg/injection, schedule: Q01DX009 (ip), vehicle: Klucel (hydroxypropylcellulose) (HPC)
[6] = dose: 200.0 mg/kg/injection, schedule: Q01DX009 (ip), vehicle: Klucel (hydroxypropylcellulose) (HPC)
[7] = dose: 400.0 mg/kg/injection, schedule: Q01DX009 (ip), vehicle: Klucel (hydroxypropylcellulose) (HPC)
[8] = dose: 400.0 mg/kg/injection, schedule: Q01DX001 (ip), vehicle: saline with Tween-80
[9] = dose: 200.0 mg/kg/injection, schedule: Q04DX002 (ip), vehicle: saline with Tween-80
[10] = dose: 400.0 mg/kg/injection, schedule: Q04DX002 (ip), vehicle: saline with Tween-80
[11] = dose: 0.18 mg/kg/injection, schedule: Q04DX002 (ip), vehicle: Klucel (hydroxypropylcellulose) (HPC)
[12] = dose: 0.37 mg/kg/injection, schedule: Q01DX009 (ip), vehicle: saline
[13] = dose: 0.37 mg/kg/injection, schedule: Q04DX002 (ip), vehicle: Klucel (hydroxypropylcellulose) (HPC)
[14] = dose: 3.0 mg/kg/injection, schedule: Q04DX002 (ip), vehicle: saline with Tween-80

Q: Which results are given for `CC(C)N(C(=O)C1C2C=CC(C2)C1C(=O)N(C(C)C)C(C)C)C(C)C` (centres undefined)?
A: survivor count (dose: 200.0 mg/kg/injection, schedule: Q04DX003 (ip), vehicle: saline with Tween-80): 1 of 3; survivor count (dose: 400.0 mg/kg/injection, schedule: Q04DX003 (ip), vehicle: saline with Tween-80): 0 of 3

Q: Which results are given for `CCc1ccccc1NC(=S)NC`?
A: survivor count [1]: 0 of 3; survivor count (dose: 200.0 mg/kg/injection, schedule: Q04DX002 (ip), vehicle: Klucel (hydroxypropylcellulose) (HPC)): 0 of 3; survivor count [2]: 0 of 3

Q: How did the survivor count [3] turn out when `Cc1noc(C)c1C=O` was run?
A: 2 of 6

Q: For `Cc1c2oc3c(C)ccc(C(=O)NC4C(=O)NC(C(C)C)C(=O)N5CCCC5C(=O)N(C)CC(=O)N(C)C(C(C)C)C(=O)OC4C)c3nc-2c(C(=O)NC2C(=O)NC(C(C)C)C(=O)N3CCCC3C(=O)N(C)CC(=O)N(C)C(C(C)C)C(=O)OC2C)cc1=O` (centres undefined), which T/C (dose: 25.0 micrograms/kg/injection, schedule: Q01DX009 (ip), vehicle: saline + alcohol) is on record?
A: 149 % of control

Q: For `CCSc1ncc(F)c(=O)[nH]1`, which survivor count [4] is on record?
A: 0 of 4

Q: With `O=C1NCCc2c1[nH]c1ccccc21` as the compound, how does the survivor count (dose: 400.0 mg/kg/injection, schedule: Q04DX003 (ip), vehicle: saline) read?
A: 1 of 6

Q: For `N#CC(C#N)=Cc1ccccc1[N+](=O)[O-]`, which survivor count (dose: 100.0 mg/kg/injection, schedule: Q01DX Z (ip), vehicle: methylcellulose (MC)) is on record?
A: 3 of 6

Q: And the survivor count (dose: 200.0 mg/kg/injection, schedule: Q01DX Z (ip), vehicle: methylcellulose (MC))?
A: 0 of 6

Q: For `CCCCN(C(=O)CCl)C(C)(C)C(SSC(c1ccc(Cl)cc1)C(C)(C)N(CCCC)C(=O)CCl)c1ccc(Cl)cc1` (centres undefined), which survivor count [5] is on record?
A: 1 of 6

Q: What about the survivor count [6] of the same compound?
A: 0 of 6

Q: And the survivor count [7]?
A: 0 of 6

Q: With `N#Cc1ccc(/C=C\c2ccc(C#N)cc2)cc1` as the compound, how does the survivor count [1] read?
A: 3 of 3

Q: And the survivor count [2]?
A: 3 of 3

Q: With `Ic1cccc(Oc2ccccc2)c1` as the compound, how does the survivor count (dose: 400.0 mg/kg/injection, schedule: Q01DX009 (ip), vehicle: saline with Tween-80) read?
A: 3 of 6

Q: For `CCOC(=O)NCS(=O)(=O)c1ccccc1-c1ccccc1`, which survivor count [3] is on record?
A: 2 of 6

Q: How did the survivor count [5] turn out when `Cc1ccc(C)c(NC(=O)Oc2ccc(Cl)cc2Cl)c1` was run?
A: 6 of 6

Q: What about the survivor count [6] of the same compound?
A: 5 of 6

Q: And the survivor count [7]?
A: 4 of 6

Q: What does the source list for `COc1ccc(OC)c(CC(Cl)(C#N)C#N)c1`?
A: survivor count (dose: 50.0 mg/kg/injection, schedule: Q01DX009 (ip), vehicle: Klucel (hydroxypropylcellulose) (HPC)): 6 of 6; survivor count [5]: 2 of 6; survivor count (dose: 100.0 mg/kg/injection, schedule: Q04DX003 (ip), vehicle: Klucel (hydroxypropylcellulose) (HPC)): 5 of 6; survivor count [6]: 0 of 6; survivor count [3]: 0 of 6

Q: `O=C(Nc1cccc(Cl)c1)SCCSC(=O)Nc1cccc(Cl)c1` was tested. Which survivor count [8] did it give?
A: 6 of 6

Q: With `NCc1ccc(OCc2nc(N)nc(N)c2-c2ccc(Cl)cc2)cc1` as the compound, how does the survivor count (dose: 200.0 mg/kg/injection, schedule: Q01DX001 (ip), vehicle: saline with Tween-80) read?
A: 3 of 6

Q: And the survivor count [8]?
A: 0 of 6

Q: With `Cc1ccc2c(c1)NP(=O)(c1ccccc1)S2` (centres undefined) as the compound, how does the survivor count [9] read?
A: 1 of 3

Q: What about the survivor count [10] of the same compound?
A: 0 of 3

Q: How did the survivor count (dose: 200.0 mg/kg/injection, schedule: Q01DX001 (ip), vehicle: saline) turn out when `CC(=O)n1cc(CS)c(=O)[nH]c1=O` was run?
A: 2 of 6

Q: And the survivor count [4]?
A: 2 of 6

Q: With `COc1cc2c(c(OC)c1OC)-c1ccc(OC)c(=O)cc1[C@@H](NC(=O)CF)CC2` as the compound, how does the survivor count (dose: 0.03 mg/kg/injection, schedule: Q01DX009 (ip), vehicle: saline with Tween-80) read?
A: 3 of 3

Q: And the survivor count (dose: 0.06 mg/kg/injection, schedule: Q01DX009 (ip), vehicle: saline with Tween-80)?
A: 3 of 3

Q: And the T/C (dose: 0.09 mg/kg/injection, schedule: Q01DX009 (ip), vehicle: saline)?
A: 128 % of control

Q: And the survivor count (dose: 0.09 mg/kg/injection, schedule: Q04DX002 (ip), vehicle: Klucel (hydroxypropylcellulose) (HPC))?
A: 2 of 3

Q: What about the survivor count (dose: 0.12 mg/kg/injection, schedule: Q01DX009 (ip), vehicle: saline with Tween-80) of the same compound?
A: 3 of 3

Q: What about the T/C (dose: 0.18 mg/kg/injection, schedule: Q01DX009 (ip), vehicle: saline with Tween-80) of the same compound?
A: 127 % of control

Q: What about the T/C [11] of the same compound?
A: 139 % of control

Q: And the survivor count [11]?
A: 0 of 3

Q: What about the survivor count (dose: 0.25 mg/kg/injection, schedule: Q01DX009 (ip), vehicle: saline with Tween-80) of the same compound?
A: 0 of 3

Q: And the T/C [12]?
A: 131 % of control

Q: And the survivor count [12]?
A: 3 of 6

Q: And the T/C [13]?
A: 139 % of control

Q: And the survivor count [13]?
A: 0 of 3

Q: What about the survivor count (dose: 0.5 mg/kg/injection, schedule: Q01DX009 (ip), vehicle: saline with Tween-80) of the same compound?
A: 0 of 3

Q: What about the survivor count (dose: 0.75 mg/kg/injection, schedule: Q01DX009 (ip), vehicle: saline with Tween-80) of the same compound?
A: 0 of 10

Q: What about the survivor count (dose: 0.75 mg/kg/injection, schedule: Q01DX009 (ip), vehicle: saline) of the same compound?
A: 0 of 6 and 1 of 6

Q: What about the survivor count (dose: 0.75 mg/kg/injection, schedule: Q04DX002 (ip), vehicle: Klucel (hydroxypropylcellulose) (HPC)) of the same compound?
A: 0 of 3

Q: And the survivor count (dose: 0.75 mg/kg/injection, schedule: Q04DX002 (ip), vehicle: saline with Tween-80)?
A: 3 of 3

Q: What about the survivor count (dose: 1.0 mg/kg/injection, schedule: Q01DX009 (ip), vehicle: saline with Tween-80) of the same compound?
A: 0 of 3

Q: What about the survivor count (dose: 1.12 mg/kg/injection, schedule: Q01DX001 (ip), vehicle: saline with Tween-80) of the same compound?
A: 5 of 10

Q: What about the survivor count (dose: 1.12 mg/kg/injection, schedule: Q01DX009 (ip), vehicle: saline with Tween-80) of the same compound?
A: 0 of 10

Q: What about the survivor count (dose: 1.12 mg/kg/injection, schedule: Q01DX009 (ip), vehicle: saline) of the same compound?
A: 1 of 6

Q: And the survivor count (dose: 1.12 mg/kg/injection, schedule: Q04DX003 (ip), vehicle: saline with Tween-80)?
A: 6 of 10

Q: And the survivor count (dose: 1.5 mg/kg/injection, schedule: Q04DX002 (ip), vehicle: Klucel (hydroxypropylcellulose) (HPC))?
A: 1 of 3

Q: And the survivor count (dose: 1.5 mg/kg/injection, schedule: Q04DX002 (ip), vehicle: saline with Tween-80)?
A: 2 of 3

Q: What about the survivor count (dose: 3.0 mg/kg/injection, schedule: Q04DX002 (ip), vehicle: Klucel (hydroxypropylcellulose) (HPC)) of the same compound?
A: 1 of 3

Q: And the T/C [14]?
A: 146 % of control

Q: And the survivor count [14]?
A: 0 of 3

Q: And the survivor count (dose: 6.0 mg/kg/injection, schedule: Q04DX002 (ip), vehicle: Klucel (hydroxypropylcellulose) (HPC))?
A: 0 of 3

Q: And the survivor count (dose: 6.0 mg/kg/injection, schedule: Q04DX002 (ip), vehicle: saline with Tween-80)?
A: 0 of 3

Q: What about the survivor count (dose: 12.5 mg/kg/injection, schedule: Q04DX002 (ip), vehicle: saline with Tween-80) of the same compound?
A: 0 of 3

Q: What about the survivor count (dose: 25.0 mg/kg/injection, schedule: Q04DX002 (ip), vehicle: saline with Tween-80) of the same compound?
A: 0 of 3

Q: What about the survivor count (dose: 50.0 mg/kg/injection, schedule: Q04DX002 (ip), vehicle: saline with Tween-80) of the same compound?
A: 0 of 3

Q: What about the survivor count (dose: 100.0 mg/kg/injection, schedule: Q04DX002 (ip), vehicle: saline with Tween-80) of the same compound?
A: 0 of 3

Q: And the survivor count [9]?
A: 0 of 3

Q: And the survivor count [10]?
A: 0 of 3

From PubChem BioAssay AID248 (DTP/NCI, 2004)
